In the supplement of paper PMC6411743:
± gives the standard deviation of the averaged measurements. The list shows a part of the results, in another mix than the full data. Most entries show no effect beyond the scatter of the controls.

Amino acid sequences for entries named in this document (tags omitted). A change or cut given only in a name is not applied to a line headed by its entry.
UniProt Q10570: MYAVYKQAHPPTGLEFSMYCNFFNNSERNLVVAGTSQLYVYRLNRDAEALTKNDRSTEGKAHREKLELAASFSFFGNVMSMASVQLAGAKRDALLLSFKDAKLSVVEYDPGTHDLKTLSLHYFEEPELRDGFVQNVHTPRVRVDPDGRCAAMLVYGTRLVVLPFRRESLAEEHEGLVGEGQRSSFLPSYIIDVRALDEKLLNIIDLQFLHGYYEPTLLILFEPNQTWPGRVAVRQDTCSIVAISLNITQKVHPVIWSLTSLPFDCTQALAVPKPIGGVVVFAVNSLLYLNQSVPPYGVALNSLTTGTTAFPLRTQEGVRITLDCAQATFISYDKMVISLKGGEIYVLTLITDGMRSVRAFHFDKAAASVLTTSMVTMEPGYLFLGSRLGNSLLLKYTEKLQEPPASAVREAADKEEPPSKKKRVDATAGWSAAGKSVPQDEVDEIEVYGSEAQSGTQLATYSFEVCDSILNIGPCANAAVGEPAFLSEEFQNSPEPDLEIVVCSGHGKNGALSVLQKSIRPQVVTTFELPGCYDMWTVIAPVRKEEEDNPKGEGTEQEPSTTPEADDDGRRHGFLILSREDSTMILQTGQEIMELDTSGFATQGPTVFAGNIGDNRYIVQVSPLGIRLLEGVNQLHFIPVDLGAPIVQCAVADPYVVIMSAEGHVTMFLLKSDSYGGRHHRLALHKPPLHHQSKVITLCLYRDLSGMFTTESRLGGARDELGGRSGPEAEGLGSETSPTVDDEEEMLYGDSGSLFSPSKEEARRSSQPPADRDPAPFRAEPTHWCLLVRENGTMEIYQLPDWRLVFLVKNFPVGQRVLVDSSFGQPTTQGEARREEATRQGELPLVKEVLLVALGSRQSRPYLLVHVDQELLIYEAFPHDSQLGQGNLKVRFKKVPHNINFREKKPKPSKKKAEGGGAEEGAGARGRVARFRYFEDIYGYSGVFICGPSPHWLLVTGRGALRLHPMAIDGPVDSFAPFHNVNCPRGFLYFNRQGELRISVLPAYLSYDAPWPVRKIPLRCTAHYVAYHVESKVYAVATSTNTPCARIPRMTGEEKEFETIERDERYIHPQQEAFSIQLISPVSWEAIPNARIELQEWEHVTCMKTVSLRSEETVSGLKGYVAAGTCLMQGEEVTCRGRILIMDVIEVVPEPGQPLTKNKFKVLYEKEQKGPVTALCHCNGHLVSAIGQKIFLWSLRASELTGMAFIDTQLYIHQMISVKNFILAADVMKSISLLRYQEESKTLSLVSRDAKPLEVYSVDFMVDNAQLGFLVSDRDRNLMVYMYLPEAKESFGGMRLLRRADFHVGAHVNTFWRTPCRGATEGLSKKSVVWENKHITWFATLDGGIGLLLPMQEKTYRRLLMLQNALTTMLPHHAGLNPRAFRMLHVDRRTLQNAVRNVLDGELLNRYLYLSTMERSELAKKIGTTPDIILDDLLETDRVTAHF
UniProt Q13905: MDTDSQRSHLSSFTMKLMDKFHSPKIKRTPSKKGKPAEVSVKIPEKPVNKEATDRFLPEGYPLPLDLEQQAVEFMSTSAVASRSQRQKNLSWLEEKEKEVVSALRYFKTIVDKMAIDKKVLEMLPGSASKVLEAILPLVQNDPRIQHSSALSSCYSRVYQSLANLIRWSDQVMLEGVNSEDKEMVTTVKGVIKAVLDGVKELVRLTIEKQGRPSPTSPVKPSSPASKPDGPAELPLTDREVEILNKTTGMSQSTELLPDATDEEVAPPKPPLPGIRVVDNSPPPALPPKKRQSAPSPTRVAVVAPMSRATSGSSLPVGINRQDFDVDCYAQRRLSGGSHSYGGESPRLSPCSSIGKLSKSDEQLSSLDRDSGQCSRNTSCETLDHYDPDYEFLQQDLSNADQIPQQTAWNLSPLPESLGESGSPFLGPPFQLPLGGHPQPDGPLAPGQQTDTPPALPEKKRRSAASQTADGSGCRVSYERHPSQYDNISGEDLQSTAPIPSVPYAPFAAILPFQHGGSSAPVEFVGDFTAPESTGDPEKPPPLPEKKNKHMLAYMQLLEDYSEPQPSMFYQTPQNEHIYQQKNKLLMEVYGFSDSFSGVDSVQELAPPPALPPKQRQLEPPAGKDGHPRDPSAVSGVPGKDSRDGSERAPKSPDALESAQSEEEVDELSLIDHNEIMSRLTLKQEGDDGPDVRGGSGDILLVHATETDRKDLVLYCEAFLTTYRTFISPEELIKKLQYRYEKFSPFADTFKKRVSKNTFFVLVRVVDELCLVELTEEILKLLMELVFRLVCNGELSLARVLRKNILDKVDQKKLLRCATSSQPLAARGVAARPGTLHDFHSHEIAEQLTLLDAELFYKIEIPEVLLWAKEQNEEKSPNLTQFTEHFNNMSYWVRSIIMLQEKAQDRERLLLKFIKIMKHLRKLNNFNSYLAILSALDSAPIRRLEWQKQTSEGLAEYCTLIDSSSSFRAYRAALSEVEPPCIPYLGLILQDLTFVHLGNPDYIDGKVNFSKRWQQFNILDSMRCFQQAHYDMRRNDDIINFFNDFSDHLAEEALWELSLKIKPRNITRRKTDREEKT
UniProt Q14061: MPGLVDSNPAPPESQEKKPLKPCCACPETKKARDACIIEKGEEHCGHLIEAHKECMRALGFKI
UniProt Q13287: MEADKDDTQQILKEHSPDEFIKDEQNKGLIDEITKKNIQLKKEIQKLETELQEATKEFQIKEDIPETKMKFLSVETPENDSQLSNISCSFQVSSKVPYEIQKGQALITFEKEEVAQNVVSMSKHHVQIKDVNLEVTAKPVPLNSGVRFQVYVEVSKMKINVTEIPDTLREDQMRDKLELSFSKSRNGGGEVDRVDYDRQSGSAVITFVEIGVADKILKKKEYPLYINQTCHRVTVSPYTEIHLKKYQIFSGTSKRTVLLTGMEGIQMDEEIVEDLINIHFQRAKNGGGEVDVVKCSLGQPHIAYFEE
UniProt Q14680: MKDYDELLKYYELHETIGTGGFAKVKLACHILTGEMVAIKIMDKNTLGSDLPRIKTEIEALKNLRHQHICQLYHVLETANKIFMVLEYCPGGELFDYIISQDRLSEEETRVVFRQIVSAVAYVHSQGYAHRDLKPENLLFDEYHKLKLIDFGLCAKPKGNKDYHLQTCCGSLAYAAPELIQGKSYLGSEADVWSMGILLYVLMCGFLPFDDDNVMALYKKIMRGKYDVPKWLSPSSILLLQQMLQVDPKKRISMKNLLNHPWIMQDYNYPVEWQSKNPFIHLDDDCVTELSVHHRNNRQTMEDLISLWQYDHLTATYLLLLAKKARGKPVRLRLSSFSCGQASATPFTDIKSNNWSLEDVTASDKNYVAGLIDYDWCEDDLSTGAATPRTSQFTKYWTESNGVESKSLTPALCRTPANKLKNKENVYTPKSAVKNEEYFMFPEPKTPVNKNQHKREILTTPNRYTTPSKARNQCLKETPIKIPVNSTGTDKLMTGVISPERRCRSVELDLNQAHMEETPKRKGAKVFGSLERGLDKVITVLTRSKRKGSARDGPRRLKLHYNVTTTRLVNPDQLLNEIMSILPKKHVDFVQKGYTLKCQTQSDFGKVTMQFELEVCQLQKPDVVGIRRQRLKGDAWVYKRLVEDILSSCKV
UniProt Q14191, whole entry: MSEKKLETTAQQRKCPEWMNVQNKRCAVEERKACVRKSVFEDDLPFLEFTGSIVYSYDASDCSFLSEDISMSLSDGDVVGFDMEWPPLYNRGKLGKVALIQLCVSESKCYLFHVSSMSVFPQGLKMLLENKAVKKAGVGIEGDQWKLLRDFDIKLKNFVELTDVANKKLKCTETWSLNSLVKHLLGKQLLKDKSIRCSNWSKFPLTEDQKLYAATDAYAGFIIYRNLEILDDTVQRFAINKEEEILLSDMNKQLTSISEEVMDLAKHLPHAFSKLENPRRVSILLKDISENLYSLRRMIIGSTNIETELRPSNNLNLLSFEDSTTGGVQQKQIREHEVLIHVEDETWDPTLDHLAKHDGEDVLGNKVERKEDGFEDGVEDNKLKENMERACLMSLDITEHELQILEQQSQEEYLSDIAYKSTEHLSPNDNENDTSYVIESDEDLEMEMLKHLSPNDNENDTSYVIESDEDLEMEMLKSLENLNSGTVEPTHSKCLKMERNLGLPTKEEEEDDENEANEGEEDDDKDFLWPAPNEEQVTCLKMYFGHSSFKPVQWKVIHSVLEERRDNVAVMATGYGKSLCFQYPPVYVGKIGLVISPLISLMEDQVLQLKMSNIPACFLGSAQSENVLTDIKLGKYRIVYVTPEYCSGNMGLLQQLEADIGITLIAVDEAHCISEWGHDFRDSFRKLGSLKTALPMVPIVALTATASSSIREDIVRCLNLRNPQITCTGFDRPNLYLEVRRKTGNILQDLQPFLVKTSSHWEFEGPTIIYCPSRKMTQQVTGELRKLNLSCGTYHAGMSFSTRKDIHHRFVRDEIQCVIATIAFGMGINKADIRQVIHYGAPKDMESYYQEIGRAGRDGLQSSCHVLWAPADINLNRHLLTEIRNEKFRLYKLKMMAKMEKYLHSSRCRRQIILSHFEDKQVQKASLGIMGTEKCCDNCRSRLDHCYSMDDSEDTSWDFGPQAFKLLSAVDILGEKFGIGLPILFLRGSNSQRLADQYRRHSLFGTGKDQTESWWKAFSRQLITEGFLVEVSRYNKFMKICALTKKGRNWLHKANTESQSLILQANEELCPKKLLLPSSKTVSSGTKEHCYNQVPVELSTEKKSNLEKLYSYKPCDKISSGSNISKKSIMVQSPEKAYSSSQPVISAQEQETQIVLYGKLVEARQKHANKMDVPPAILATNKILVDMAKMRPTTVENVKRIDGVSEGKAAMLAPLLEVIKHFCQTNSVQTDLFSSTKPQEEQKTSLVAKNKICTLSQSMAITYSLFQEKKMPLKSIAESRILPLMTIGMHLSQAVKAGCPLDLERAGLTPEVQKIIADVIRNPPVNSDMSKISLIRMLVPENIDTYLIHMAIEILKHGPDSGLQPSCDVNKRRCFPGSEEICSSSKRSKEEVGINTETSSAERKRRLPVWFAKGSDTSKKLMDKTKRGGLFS
UniProt Q13303: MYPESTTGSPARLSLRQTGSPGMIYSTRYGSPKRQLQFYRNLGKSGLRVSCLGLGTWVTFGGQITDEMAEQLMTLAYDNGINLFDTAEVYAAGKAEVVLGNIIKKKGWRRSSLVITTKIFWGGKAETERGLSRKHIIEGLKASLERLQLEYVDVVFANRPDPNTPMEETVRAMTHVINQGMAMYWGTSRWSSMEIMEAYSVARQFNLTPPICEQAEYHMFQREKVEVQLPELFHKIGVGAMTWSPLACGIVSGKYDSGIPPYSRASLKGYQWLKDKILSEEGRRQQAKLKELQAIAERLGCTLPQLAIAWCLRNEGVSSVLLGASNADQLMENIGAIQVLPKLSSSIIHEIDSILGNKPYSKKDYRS
UniProt Q14697: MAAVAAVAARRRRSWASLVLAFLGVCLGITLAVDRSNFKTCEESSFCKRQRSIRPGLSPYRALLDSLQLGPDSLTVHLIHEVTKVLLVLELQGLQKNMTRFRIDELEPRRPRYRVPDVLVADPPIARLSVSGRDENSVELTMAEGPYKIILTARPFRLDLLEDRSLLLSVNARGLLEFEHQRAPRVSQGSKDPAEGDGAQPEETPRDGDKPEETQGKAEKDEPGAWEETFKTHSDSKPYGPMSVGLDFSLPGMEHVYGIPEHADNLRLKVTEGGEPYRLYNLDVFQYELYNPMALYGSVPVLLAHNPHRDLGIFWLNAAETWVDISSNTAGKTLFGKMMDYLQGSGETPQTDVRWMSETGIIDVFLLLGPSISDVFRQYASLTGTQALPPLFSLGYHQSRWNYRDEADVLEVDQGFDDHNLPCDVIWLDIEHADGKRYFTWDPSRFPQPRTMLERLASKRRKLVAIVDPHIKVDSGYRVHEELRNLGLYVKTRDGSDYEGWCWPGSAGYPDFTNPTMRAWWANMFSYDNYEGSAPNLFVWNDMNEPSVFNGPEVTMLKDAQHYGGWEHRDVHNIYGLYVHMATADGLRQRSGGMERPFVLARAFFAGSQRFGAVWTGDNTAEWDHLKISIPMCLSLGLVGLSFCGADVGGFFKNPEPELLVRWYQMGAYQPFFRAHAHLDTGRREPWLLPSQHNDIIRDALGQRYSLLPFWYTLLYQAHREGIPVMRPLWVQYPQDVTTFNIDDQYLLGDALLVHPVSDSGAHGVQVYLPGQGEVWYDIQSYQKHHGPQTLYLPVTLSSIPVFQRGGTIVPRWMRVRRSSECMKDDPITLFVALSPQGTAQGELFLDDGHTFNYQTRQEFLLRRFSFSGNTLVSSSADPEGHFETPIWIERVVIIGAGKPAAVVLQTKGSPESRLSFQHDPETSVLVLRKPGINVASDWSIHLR
UniProt Q13151: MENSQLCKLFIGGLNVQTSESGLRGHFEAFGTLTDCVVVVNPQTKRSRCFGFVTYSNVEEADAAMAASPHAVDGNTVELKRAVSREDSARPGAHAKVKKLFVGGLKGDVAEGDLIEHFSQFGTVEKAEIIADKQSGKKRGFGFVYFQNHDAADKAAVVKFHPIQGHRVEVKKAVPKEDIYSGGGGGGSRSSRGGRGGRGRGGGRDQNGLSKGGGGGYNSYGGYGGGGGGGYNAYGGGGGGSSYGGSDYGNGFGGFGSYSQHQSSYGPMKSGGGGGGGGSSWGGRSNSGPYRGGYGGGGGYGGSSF

Compound: Nc1ncnc2c1ncn2[C@@H]1O[C@H](COP(=O)(O)OP(=O)(O)NP(=O)(O)O)[C@@H](O)[C@H]1O [adenylyl imidodiphosphate]
Assay: NP40-soluble protein abundance relative to vehicle (solubility fold change) (ratio); higher = more soluble protein in presence of AMP-PNP
Summary of the method: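 Jurkat crude lysate (Dounce-homogenised) was treated with eight concentrations from 0.1 to 10 mM for 10 min at room temperature, then 3 min at 37 °C. It was solubilised with 0.8% NP40 and benzonase (60 min, 4 °C) and ultracentrifuged, and the supernatant was TMT-labelled for LC-MS/MS. Intensities were vsn-normalised, and the value is the fold change against the NP40-processed vehicle per replicate, from three independent experiments.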

Target	NP40-soluble protein abundance (concentration: 0.1mM)	NP40-soluble protein abundance (concentration: 0.5mM)
CPSF1 (UniProt Q10570)	1.043 ± 0.0076	0.99 ± 0.058
UniProt Q14693 and related entries	0.991 ± 0.017	1.01 ± 0.022
TSTA3 (UniProt Q13630)	0.987 ± 0.026	0.964 ± 0.013
UniProt Q14642 and related entries	1 ± 0.026	0.998 ± 0.029
UniProt Q15029 and related entries	1.05 ± 0.018	1.03 ± 0.049
UniProt Q14318-2|Q14318	1.02 ± 0.028	1.03 ± 0.032
UniProt Q13042 and related entries	1.02 ± 0.073	0.982 ± 0.15
TRIM25 (UniProt Q14258)	0.982 ± 0.067	1 ± 0.05
UniProt Q14746 and related entries	0.987 ± 0.026	0.961 ± 0.058
UniProt Q13905 and related entries	0.956 ± 0.02	0.9891 ± 0.0025
NPAT (UniProt Q14207)	1 ± 0.032	1.03 ± 0.037
UniProt Q13164	1.008 ± 0.01	0.964 ± 0.026
LGALS3BP (UniProt Q08380)	1.01 ± 0.031	0.981 ± 0.047
BRD3 (UniProt Q15059)	0.979 ± 0.04	1.03 ± 0.027
UniProt Q08AM6 and related entries	1.01 ± 0.047	0.989 ± 0.056
LAGE3 (UniProt Q14657)	0.999 ± 0.039	0.973 ± 0.049
ZNF638 (UniProt Q14966)	0.993 ± 0.02	1.03 ± 0.022
UniProt Q14156 and related entries	0.99 ± 0.013	0.979 ± 0.023
STX4 (UniProt Q12846)	0.993 ± 0.028	0.986 ± 0.017
PPID (UniProt Q08752)	0.9997 ± 0.0078	0.984 ± 0.014
TWF1 (UniProt Q12792)	0.965 ± 0.031	0.982 ± 0.04
UniProt Q12789 and related entries	1.02 ± 0.018	0.9875 ± 0.0064
PIN1 (UniProt Q13526)	1 ± 0.032	1.04 ± 0.054
PSMD2 (UniProt Q13200)	0.978 ± 0.045	0.95 ± 0.087

Target	NP40-soluble protein abundance (concentration: 0.1mM)	NP40-soluble protein abundance (concentration: 0.5mM)
GAMT (UniProt Q14353)	1.02 ± 0.019	1.01 ± 0.017
COX17 (UniProt Q14061)	0.996 ± 0.035	0.972 ± 0.036
BOP1 (UniProt Q14137)	0.9777 ± 0.0039	0.99 ± 0.045
THOC5 (UniProt Q13769)	1.2 ± 0.082	1.25 ± 0.16
TRA2A (UniProt Q13595)	0.994 ± 0.09	0.989 ± 0.067
UniProt Q14865	0.997 ± 0.015	1 ± 0.045
UniProt Q10589 and related entries	0.9983 ± 0.004	1.02 ± 0.018
TMEM115 (UniProt Q12893)	0.964 ± 0.034	0.968 ± 0.044
UniProt Q12872 and related entries	0.994 ± 0.038	1.02 ± 0.018
UniProt Q09028 and related entries	1.03 ± 0.046	0.986 ± 0.027
XRCC4 (UniProt Q13426)	1.05 ± 0.056	1.129 ± 0.01
PSME4 (UniProt Q14997)	1.06 ± 0.03	0.98 ± 0.099
USP4 (UniProt Q13107)	0.977 ± 0.033	0.969 ± 0.013
UniProt Q14444 and related entries	1.05 ± 0.074	1.06 ± 0.058
UniProt Q14980 and related entries	1.01 ± 0.045	1.04 ± 0.05
UniProt Q13409-3|Q13409-2	0.989 ± 0.034	0.974 ± 0.059
UniProt Q13642-1|Q13642-4|Q13642-5	0.9723 ± 0.0095	0.969 ± 0.025
UniProt Q14807 and related entries	1.04 ± 0.033	1.07 ± 0.031
UniProt Q13131 and related entries	1.03 ± 0.024	1.01 ± 0.011
UniProt Q12873 and related entries	1 ± 0.018	1.03 ± 0.019
PWP1 (UniProt Q13610)	1.04 ± 0.016	1.04 ± 0.03
UniProt Q13574 and related entries	0.996 ± 0.015	0.978 ± 0.014
ADAM9 (UniProt Q13443)	0.988 ± 0.035	0.959 ± 0.0089
UniProt Q13085 and related entries	1.03 ± 0.022	0.978 ± 0.095

Target	NP40-soluble protein abundance (concentration: 0.1mM)	NP40-soluble protein abundance (concentration: 0.5mM)
UniProt Q13247 and related entries	1.02 ± 0.034	1.01 ± 0.056
PPIL2 (UniProt Q13356)	0.991 ± 0.034	0.9932 ± 0.0087
CUL1 (UniProt Q13616)	1 ± 0.012	0.996 ± 0.027
NMI (UniProt Q13287)	0.992 ± 0.021	0.984 ± 0.034
UniProt Q14157 and related entries	0.974 ± 0.025	1.03 ± 0.072
UniProt Q13137 and related entries	0.986 ± 0.024	0.997 ± 0.051
FKBP5 (UniProt Q13451)	0.986 ± 0.028	1.007 ± 0.01
GNA13 (UniProt Q14344)	0.994 ± 0.061	0.959 ± 0.092
AHNAK (UniProt Q09666)	0.975 ± 0.018	0.991 ± 0.059
PMPCA (UniProt Q10713)	1.03 ± 0.049	0.977 ± 0.055
EP300 (UniProt Q09472)	1.005 ± 0.0053	0.995 ± 0.01
MTM1 (UniProt Q13496)	0.984 ± 0.015	0.967 ± 0.043
UniProt Q15006	1 ± 0.029	0.985 ± 0.049
UniProt Q15118 and related entries	1.05 ± 0.02	1.04 ± 0.032
MCM6 (UniProt Q14566)	0.983 ± 0.023	0.944 ± 0.083
UniProt Q13308 and related entries	0.978 ± 0.02	1.02 ± 0.06
RAB33A (UniProt Q14088)	0.997 ± 0.03	0.998 ± 0.038
ITPK1 (UniProt Q13572)	1.03 ± 0.011	1.04 ± 0.013
UniProt Q13615 and related entries	1.03 ± 0.023	1.01 ± 0.024
UniProt Q14240 and related entries	1.06 ± 0.054	1.077 ± 0.0067
LASP1 (UniProt Q14847)	1 ± 0.026	1.05 ± 0.047
UniProt Q14680 and related entries	0.9988 ± 0.0077	1.02 ± 0.023
UniProt Q13310-3|Q13310	0.997 ± 0.037	1.02 ± 0.013
SAFB2 (UniProt Q14151)	1.04 ± 0.019	1.07 ± 0.05

Target	NP40-soluble protein abundance (concentration: 0.1mM)	NP40-soluble protein abundance (concentration: 0.5mM)
TFDP2 (UniProt Q14188)	1 ± 0.017	0.998 ± 0.026
DDX10 (UniProt Q13206)	0.987 ± 0.024	1.01 ± 0.048
UniProt Q13459 and related entries	1.05 ± 0.043	1.05 ± 0.046
WRN (UniProt Q14191)	1.04 ± 0.017	1.03 ± 0.045
UniProt Q14643 and related entries	1.02 ± 0.026	0.995 ± 0.038
UniProt Q14677 and related entries	0.94 ± 0.021	0.986 ± 0.034
CHAF1B (UniProt Q13112)	1.01 ± 0.036	0.989 ± 0.029
UniProt Q12974 and related entries	1 ± 0.028	1.01 ± 0.041
UniProt Q12959-3|A0A0C4DFT3|Q12959-4	0.96 ± 0.035	0.974 ± 0.027
UniProt Q15018	0.986 ± 0.018	0.995 ± 0.036
Q13888 and related entries (UniProt Q6P1K8+Q13888)	1.05 ± 0.034	1 ± 0.057
UniProt Q13303 and related entries	1.03 ± 0.036	1.01 ± 0.083
UniProt Q14161 and related entries	1.02 ± 0.03	1.01 ± 0.046
RRS1 (UniProt Q15050)	1.03 ± 0.018	0.979 ± 0.022
EIF4EBP2 (UniProt Q13542)	1 ± 0.029	1.01 ± 0.019
DAG1 (UniProt Q14118)	1.02 ± 0.056	1.05 ± 0.094
UniProt Q13952 and related entries	1 ± 0.028	0.984 ± 0.03
UniProt Q14697 and related entries	0.997 ± 0.034	0.984 ± 0.037
TFDP1 (UniProt Q14186)	1.01 ± 0.034	0.986 ± 0.019
MLEC (UniProt Q14165)	1.01 ± 0.023	1.026 ± 0.01
UniProt Q13105 and related entries	1 ± 0.03	0.976 ± 0.031
TMED1 (UniProt Q13445)	1.02 ± 0.025	0.988 ± 0.038
LMAN2 (UniProt Q12907)	1.02 ± 0.035	0.983 ± 0.072
UniProt Q14247 and related entries	1.02 ± 0.023	1.07 ± 0.029

Target	NP40-soluble protein abundance (concentration: 0.1mM)	NP40-soluble protein abundance (concentration: 0.5mM)
TBL3 (UniProt Q12788)	1.04 ± 0.029	1.04 ± 0.048
ROCK1 (UniProt Q13464)	0.977 ± 0.038	1.01 ± 0.06
UniProt Q14684 and related entries	1.021 ± 0.0086	1.02 ± 0.014
UniProt Q15013 and related entries	0.989 ± 0.011	1.013 ± 0.0039
UniProt Q12769 and related entries	1.02 ± 0.031	0.973 ± 0.064
UniProt Q15084 and related entries	0.953 ± 0.033	0.969 ± 0.023
ITPR2 (UniProt Q14571)	1.01 ± 0.03	0.98 ± 0.069
UniProt Q12888 and related entries	0.9661 ± 0.0042	0.99 ± 0.059
DPYD (UniProt Q12882)	0.998 ± 0.02	0.9633 ± 0.0012
MRPL49 (UniProt Q13405)	1.04 ± 0.047	1.04 ± 0.022
HNRNPA0 (UniProt Q13151)	1.01 ± 0.055	1.04 ± 0.059
EIF4EBP1 (UniProt Q13541)	0.9758 ± 0.007	1.009 ± 0.006
UniProt Q13795 and related entries	0.98 ± 0.036	1 ± 0.051
ZNF146 (UniProt Q15072)	0.9607 ± 0.0067	0.9483 ± 0.0085
PAFAH1B3 (UniProt Q15102)	1.01 ± 0.062	1.03 ± 0.049
MVP (UniProt Q14764)	1.04 ± 0.038	1.02 ± 0.034
UniProt Q13438 and related entries	0.9829 ± 0.0067	0.975 ± 0.016
UniProt Q13416	0.993 ± 0.023	0.985 ± 0.065
UniProt Q13136 and related entries	1.02 ± 0.057	1 ± 0.061
RIPK1 (UniProt Q13546)	0.974 ± 0.031	0.967 ± 0.039
UniProt Q13363 and related entries	0.992 ± 0.015	1.03 ± 0.033
UniProt Q13627 and related entries	0.977 ± 0.015	1.01 ± 0.023
UniProt Q13951 and related entries	0.965 ± 0.038	1.01 ± 0.089
UniProt Q13188	0.982 ± 0.023	0.976 ± 0.049
